In patent US20160272721A1:
No constants are given. Whether binding was seen depends on the method and setting. Some entries that bind do so weakly or less than the wild type.

Columns and labels:
[1] = biological target: T1, AIMP2-DX2 protein (human) (UniProt Q13155); experiment: Western blot of H460 cell lysate (FIG. 18)
T1 sequence: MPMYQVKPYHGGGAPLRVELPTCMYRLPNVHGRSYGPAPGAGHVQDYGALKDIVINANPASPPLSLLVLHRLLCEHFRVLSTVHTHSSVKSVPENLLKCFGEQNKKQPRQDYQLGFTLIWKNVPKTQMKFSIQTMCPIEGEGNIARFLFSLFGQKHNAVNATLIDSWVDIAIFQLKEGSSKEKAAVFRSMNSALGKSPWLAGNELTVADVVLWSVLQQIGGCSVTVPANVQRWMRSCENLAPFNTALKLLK

[2] = biological target: T1, AIMP2-DX2 protein (human); experiment: Western blot of H460 cell lysates (FIG. 22)
[3] = biological target: T1, AIMP2-DX2 protein (human); experiment: Western blot of H460 lysates after siRNA knock-down of AIMP2-DX2 (FIG. 19a)
[4] = biological target: T1, AIMP2-DX2 protein (human); experiment: Western blot of SW460 cell lysate with periplasmic extract as primary antibody

- binding [1]: binds
- binding [2]: binds
- binding [3]: binds
- binding [4]: binds
B1: H5 Fab (Fab, V domains shown)
VH: QEQLVESGGGLVTPGGTLTLTCTASGFTISSYHMTWVRQAPGKGLEWIGVISNSGGTSYANWAKGRFTISKTSTTVDLKITSPTTEDTATYFCVRGVPGINSNLWGQGTLVTISS
VL: AQVLTQTPSSVSAAVGGTVTINCQSSQSVYSGNWLAWYQQKPGQPPKLLIYSTSTLASGVPSRFKGSGSGTQFTLTVSDLECDDAATYYCAGDYDGYKNAFGGGTKVVVKR
